These are yes or no findings as the source states them, for the method shown. In cells and extracts the contact can be indirect. Some binding calls cover weakened binding; strength is not graded here. Where a sequence is shown, tags or fusion partners need not be part of it.
Experiments:
human Fas (human) [1] = target: human Fas (human) (UniProt P25445); test: co-immunoprecipitation (summary of the result)
human Fas (human) [2] = target: human Fas (human) (UniProt P25445); test: co-immunoprecipitation with anti-human Fas antibodies, immunoblot, transiently transfected cells

Sequences of proteins named here, by UniProt entry; tags and fusion partners are left off. Residues count along the entry.
UniProt P25445, residues 26-335: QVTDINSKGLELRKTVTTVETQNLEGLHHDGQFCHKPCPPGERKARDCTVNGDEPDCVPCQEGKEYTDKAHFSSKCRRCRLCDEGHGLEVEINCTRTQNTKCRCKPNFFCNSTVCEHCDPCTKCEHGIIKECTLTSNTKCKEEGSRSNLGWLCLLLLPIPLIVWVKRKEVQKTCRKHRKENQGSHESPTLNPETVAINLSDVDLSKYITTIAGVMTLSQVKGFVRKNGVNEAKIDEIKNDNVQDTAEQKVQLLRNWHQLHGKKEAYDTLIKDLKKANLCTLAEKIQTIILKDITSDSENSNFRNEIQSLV

binding (human Fas (human) [1]): binds
binding (human Fas (human) [2]): binds
B1: amino-terminal myc epitope-tagged LFG (myc-LFG) (other, not shown: small tags and cut ends)
chain: MTRGKLSVANKAPGTEGQQQVHGEKKEAPAVPSAPPSYEEATSGEGMKAGAFPPAPTAVPLHPSWAYVDPSSSSSYDNGFPPETMSSSPLSAGMTKKVRRVFVRKVYTILLIQLLVTLAVVALFTFCDPCQGLCSGQPGWYWASYAVFFATYLTLACCSGPRRHFPWNLILLTVFTLSMAYLTGMLSSYYNTTSVLLCLGITALVCLSVTVFSFQTKFDFTSCQGVLFVLLMTLFFSGLILAILLPFQYVPWLHAVYAALGAGVFTLFLALDTQLLMGNRRHSLSPEEYIFGALNIYLDIIYIFTFFLQLFGTNRE
notes: Expressed from an expression vector by transient transfection (HeLa, 293 cells) and found by immunoprecipitation and immunoblot; also called lifeguard

Source: US6500940 (SALK INSTITUTE FOR BIOLOGICAL STUDIES, dated 2002)
